Values from PubChem BioAssay AID1259254 (NCATS, 2017).

Screen: 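Gene knock-downs that lead to re-replication, shown by excess G2 DNA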 (primary screen)
System: human HCT116 colorectal cancer cells
Reagent: single siRNA against human genes
Duration: 3 days
Measurement: 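Nuclei stained with Hoechst and imaged; cell-cycle phase assigned by DNA content; G2 share scaled per plate, non-targeting siRNA 0%, GMNN siRNA 100%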
Reading the numbers: G2 robust z-score and G2 cells, % of GMNN control: higher = more G2 cells, more excess DNA replication
Active means: 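Active siRNAs have a G2 robust z of 5 or more median absolute deviations over the median, which in these data means about 38% or higher of GMNN control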
The deposit covers about 59,000 reagents; shown is an unselected part. About 1,550 of all reagents (2.6%) were called active. 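G2 share is only a proxy for re-replication; each gene was hit by three separate siRNAs, and active genes were retested.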 Entries without a mark were called inactive. Reagents against one gene are numbered here. Further read-outs or replicates are left out here. No sequences are given here. Not given: the amount of reagent.

Against FAM163B #1, the entry reads G2 robust z-score -0.656; G2 cells, % of GMNN control -1.65.
After knock-down of FAM163B #2 the results were G2 robust z-score -0.871; G2 cells, % of GMNN control -3.16.
For FAM163B #3, the values are G2 robust z-score -0.994; G2 cells, % of GMNN control -4.03.
For ADGRE3 #1, the values are G2 robust z-score -0.088; G2 cells, % of GMNN control 2.35.
ADGRE3 #2 showed G2 robust z-score 0.328; G2 cells, % of GMNN control 5.27.
For ADGRE3 #3, the entry reads G2 robust z-score -0.529; G2 cells, % of GMNN control -0.756.
For ANKLE2 #1, the entry reads G2 robust z-score 1.12; G2 cells, % of GMNN control 10.8.
With knock-down of ANKLE2 #2 the results were G2 robust z-score -0.975; G2 cells, % of GMNN control -3.89.
Depletion of ANKLE2 #3 came out at: G2 robust z-score 0.599; G2 cells, % of GMNN control 7.18.
Depletion of LRRC18 #1 gave: G2 robust z-score -1.1; G2 cells, % of GMNN control -4.76.
After knock-down of LRRC18 #2, the record shows G2 robust z-score -0.796; G2 cells, % of GMNN control -2.63.
Against LRRC18 #3, the entry reads G2 robust z-score 3.48; G2 cells, % of GMNN control 27.4.
Knock-down of CERS6 #1 resulted in: G2 robust z-score 2.32; G2 cells, % of GMNN control 19.3.
CERS6 #2 showed G2 robust z-score 0.276; G2 cells, % of GMNN control 4.91.
Silencing of CERS6 #3 resulted in: G2 robust z-score 1.77; G2 cells, % of GMNN control 15.5.

No new results follow: 3 of the entries above.
ANKLE2 #1 → G2 robust z-score: 1.12; G2 cells, % of GMNN control: 10.8
ANKLE2 #2 → G2 robust z-score: -0.975; G2 cells, % of GMNN control: -3.89
ANKLE2 #3 → G2 robust z-score: 0.599; G2 cells, % of GMNN control: 7.18

The listing continues:
Knock-down of GREM1 #1 gave: G2 robust z-score 0.368; G2 cells, % of GMNN control 5.55.
GREM1 #2 gave G2 robust z-score 0.0787; G2 cells, % of GMNN control 3.52.
With knock-down of GREM1 #3 the results were G2 robust z-score -0.358; G2 cells, % of GMNN control 0.449.
NFS1 #1 gave G2 robust z-score 1.32; G2 cells, % of GMNN control 12.2.
Against NFS1 #2, the entry reads G2 robust z-score -0.461; G2 cells, % of GMNN control -0.279.
NFS1 #3 scored G2 robust z-score 0.639; G2 cells, % of GMNN control 7.46.
Against ELAVL4 #1, the entry reads G2 robust z-score -0.486; G2 cells, % of GMNN control -0.454.
ELAVL4 #2 scored G2 robust z-score 1.48; G2 cells, % of GMNN control 13.4.
ELAVL4 #3 scored G2 robust z-score -0.277; G2 cells, % of GMNN control 1.02.
